Test results taken from publication PMC7489914, “Structural and functional studies of Arabidopsis thaliana legumain beta reveal isoform specific mechanisms of activation and substrate recognition” (The Journal of Biological Chemistry, 2020).
Substitutions are numbered along the chain they refer to. Names and notes keep the numbering of the source. No constants are given. Whether binding was seen depends on the method and setting. Some results given as binding are weak or reduced against the parent protein; the word gives no strength.

Legend:
[1] = target: proAtLEGβ C211A dead mutant (Arabidopsis thaliana) (UniProt Q39044); assay: crystal structure; proAtLEGβ C211A at 10 mg/ml; 0.5 M ammonium sulfate, 1 M lithium sulfate, 0.1 M trisodium citrate; 2.0 Å, 12 molecules in the asymmetric unit; both purified
[2] = target: Arabidopsis thaliana prolegumain isoform beta (proAtLEGβ) (Arabidopsis thaliana) (UniProt Q39044); assay: SEC; 200 µl proAtLEGβ on an S200 10/300 GL column, 20 mM Hepes pH 7.5, 100 mM NaCl (the results say pH 7.0); BSA as size standard; both purified
[3] = target: two-chain AtLEGβ (two-chain intermediate state) (Arabidopsis thaliana) (UniProt Q39044); assay: SEC; pH 5.0-activated AtLEGβ on an S200 column, 20 mM citric acid pH 5.0, 100 mM NaCl; BSA as size standard; both purified

B1: proAtLEGβ C211A dead mutant (enzyme, UniProt Q39044 22-486)
chain: ESRGRFEPKILMPTEEANPADQDEDGVGTRWAVLVAGSSGYGNYRHQADVCHAYQILRKGGLKEENIVVLMYDDIANHPLNPRPGTLINHPDGDDVYAGVPKDYTGSSVTAANFYAVLLGDQKAVKGGSGKVIASKPNDHIFVYYADHGGPGVLGMPNTPHIYAADFIETLKKKHASGTYKEMVIYVEAAESGSIFEGIMPKDLNIYVTTASNAQESSYGTYCPGMNPSPPSEYITCLGDLYSVAWMEDSETHNLKKETIKQQYHTVKMRTSNYNTYSGGSHVMEYGNNSIKSEKLYLYQGFDPATVNLPLNELPVKSKIGVVNQRDADLLFLWHMYRTSEDGSRKKDDTLKELTETTRHRKHLDASVELIATILFGPTMNVLNLVREPGLPLVDDWECLKSMVRVFEEHCGSLTQYGMKHMRAFANVCNNGVSKELMEEASTAACGGYSEARYTVHPSILGYSA
modifications: glycosylation at Asn309
How did the binding [1] turn out when B1 was run?
The binding was “binds weakly”.

B2: Arabidopsis thaliana prolegumain isoform beta (proAtLEGβ) (enzyme, UniProt Q39044 22-486)
chain: B1 chain with A190C
How did the binding [2] turn out when B2 was run?
The binding was “no binding”.

B3: two-chain AtLEGβ (two-chain intermediate state) (complex, UniProt Q39044 22-333; Q39044 346-486)
chain 1: ESRGRFEPKILMPTEEANPADQDEDGVGTRWAVLVAGSSGYGNYRHQADVCHAYQILRKGGLKEENIVVLMYDDIANHPLNPRPGTLINHPDGDDVYAGVPKDYTGSSVTAANFYAVLLGDQKAVKGGSGKVIASKPNDHIFVYYADHGGPGVLGMPNTPHIYAADFIETLKKKHASGTYKEMVIYVEACESGSIFEGIMPKDLNIYVTTASNAQESSYGTYCPGMNPSPPSEYITCLGDLYSVAWMEDSETHNLKKETIKQQYHTVKMRTSNYNTYSGGSHVMEYGNNSIKSEKLYLYQGFDPATVNLPLN
chain 2: QRDADLLFLWHMYRTSEDGSRKKDDTLKELTETTRHRKHLDASVELIATILFGPTMNVLNLVREPGLPLVDDWECLKSMVRVFEEHCGSLTQYGMKHMRAFANVCNNGVSKELMEEASTAACGGYSEARYTVHPSILGYSA
For B3, which binding [3] is on record?
Its binding is “no binding”.
